Measurements: the supplement of paper PMC10849652
The other results are listed elsewhere or left out.

Chains of the proteins cited; added tags and fusions are not shown. Lines headed by an entry give the natural chain unless they say otherwise; changes in a name come on top.
UniProt O43765: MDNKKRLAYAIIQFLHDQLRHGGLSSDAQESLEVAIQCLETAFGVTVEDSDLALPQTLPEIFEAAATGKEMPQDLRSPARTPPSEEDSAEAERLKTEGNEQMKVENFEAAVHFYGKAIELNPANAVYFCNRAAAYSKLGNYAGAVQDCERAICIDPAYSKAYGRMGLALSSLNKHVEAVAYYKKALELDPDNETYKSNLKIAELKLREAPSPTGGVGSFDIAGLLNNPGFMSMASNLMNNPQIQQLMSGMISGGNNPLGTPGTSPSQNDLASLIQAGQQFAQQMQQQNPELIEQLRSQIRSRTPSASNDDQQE
UniProt Q9BYW2: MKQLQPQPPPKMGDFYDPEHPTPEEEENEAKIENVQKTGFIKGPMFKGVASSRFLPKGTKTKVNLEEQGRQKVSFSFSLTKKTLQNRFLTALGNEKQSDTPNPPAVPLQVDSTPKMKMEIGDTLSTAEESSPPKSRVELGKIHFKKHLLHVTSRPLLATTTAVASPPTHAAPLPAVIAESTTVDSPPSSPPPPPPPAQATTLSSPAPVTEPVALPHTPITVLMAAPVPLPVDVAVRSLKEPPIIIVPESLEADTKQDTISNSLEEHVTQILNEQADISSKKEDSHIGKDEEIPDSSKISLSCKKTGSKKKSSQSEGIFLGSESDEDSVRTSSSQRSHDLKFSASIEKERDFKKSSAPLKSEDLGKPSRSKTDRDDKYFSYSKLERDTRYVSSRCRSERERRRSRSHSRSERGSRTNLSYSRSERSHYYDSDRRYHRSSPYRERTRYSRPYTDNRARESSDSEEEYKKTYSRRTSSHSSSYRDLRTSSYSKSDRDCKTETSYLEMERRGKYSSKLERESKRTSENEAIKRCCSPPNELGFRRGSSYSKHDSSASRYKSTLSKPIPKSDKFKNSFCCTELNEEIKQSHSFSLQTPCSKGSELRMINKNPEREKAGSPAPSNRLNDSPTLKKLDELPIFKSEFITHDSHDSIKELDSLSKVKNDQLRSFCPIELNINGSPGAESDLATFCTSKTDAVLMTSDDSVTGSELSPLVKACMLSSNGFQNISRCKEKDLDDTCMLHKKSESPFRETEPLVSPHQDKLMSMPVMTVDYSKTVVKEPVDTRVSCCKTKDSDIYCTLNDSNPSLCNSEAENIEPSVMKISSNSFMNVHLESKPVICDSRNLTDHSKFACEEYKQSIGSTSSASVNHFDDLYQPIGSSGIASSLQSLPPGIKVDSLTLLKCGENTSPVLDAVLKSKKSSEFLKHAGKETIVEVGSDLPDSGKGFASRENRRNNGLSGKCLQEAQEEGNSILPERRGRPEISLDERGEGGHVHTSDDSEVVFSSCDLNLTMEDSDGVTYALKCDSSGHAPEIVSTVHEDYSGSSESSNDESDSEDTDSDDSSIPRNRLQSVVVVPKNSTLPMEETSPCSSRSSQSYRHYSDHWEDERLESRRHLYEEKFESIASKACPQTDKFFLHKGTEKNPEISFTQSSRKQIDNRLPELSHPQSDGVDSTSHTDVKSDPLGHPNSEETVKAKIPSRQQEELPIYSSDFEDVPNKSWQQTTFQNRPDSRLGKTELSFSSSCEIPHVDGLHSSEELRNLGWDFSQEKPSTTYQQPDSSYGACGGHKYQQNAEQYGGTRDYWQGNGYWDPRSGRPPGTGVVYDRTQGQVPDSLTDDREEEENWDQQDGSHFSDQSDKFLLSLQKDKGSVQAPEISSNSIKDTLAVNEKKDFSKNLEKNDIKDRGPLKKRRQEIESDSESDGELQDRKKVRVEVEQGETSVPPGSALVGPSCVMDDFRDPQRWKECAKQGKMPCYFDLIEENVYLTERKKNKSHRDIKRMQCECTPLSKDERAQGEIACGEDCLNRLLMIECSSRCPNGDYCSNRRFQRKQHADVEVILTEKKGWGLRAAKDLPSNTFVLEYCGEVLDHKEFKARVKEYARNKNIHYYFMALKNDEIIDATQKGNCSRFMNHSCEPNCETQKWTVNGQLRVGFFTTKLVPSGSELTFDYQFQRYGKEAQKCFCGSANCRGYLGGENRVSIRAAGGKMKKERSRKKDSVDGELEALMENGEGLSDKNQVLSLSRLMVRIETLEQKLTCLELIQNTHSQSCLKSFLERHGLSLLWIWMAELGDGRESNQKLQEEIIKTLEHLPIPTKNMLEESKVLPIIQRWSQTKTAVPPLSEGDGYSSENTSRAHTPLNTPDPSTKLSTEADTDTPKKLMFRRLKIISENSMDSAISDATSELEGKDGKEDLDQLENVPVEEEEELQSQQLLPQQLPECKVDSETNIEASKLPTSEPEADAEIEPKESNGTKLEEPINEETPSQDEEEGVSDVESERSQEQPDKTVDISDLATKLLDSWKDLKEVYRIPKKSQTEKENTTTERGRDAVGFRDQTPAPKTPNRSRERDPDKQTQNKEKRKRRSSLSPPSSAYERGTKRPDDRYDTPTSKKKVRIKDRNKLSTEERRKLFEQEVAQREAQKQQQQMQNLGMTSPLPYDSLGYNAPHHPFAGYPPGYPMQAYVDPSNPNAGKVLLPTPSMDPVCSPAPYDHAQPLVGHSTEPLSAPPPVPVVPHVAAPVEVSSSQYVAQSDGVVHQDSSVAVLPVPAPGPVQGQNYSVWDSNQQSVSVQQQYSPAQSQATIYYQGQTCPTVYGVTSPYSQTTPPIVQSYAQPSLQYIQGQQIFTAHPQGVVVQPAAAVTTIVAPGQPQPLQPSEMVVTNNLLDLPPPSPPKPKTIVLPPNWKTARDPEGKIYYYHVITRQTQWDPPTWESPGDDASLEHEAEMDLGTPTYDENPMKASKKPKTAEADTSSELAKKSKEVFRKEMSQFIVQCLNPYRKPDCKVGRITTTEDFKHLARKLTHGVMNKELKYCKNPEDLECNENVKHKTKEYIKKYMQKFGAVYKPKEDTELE
UniProt Q9UGK8: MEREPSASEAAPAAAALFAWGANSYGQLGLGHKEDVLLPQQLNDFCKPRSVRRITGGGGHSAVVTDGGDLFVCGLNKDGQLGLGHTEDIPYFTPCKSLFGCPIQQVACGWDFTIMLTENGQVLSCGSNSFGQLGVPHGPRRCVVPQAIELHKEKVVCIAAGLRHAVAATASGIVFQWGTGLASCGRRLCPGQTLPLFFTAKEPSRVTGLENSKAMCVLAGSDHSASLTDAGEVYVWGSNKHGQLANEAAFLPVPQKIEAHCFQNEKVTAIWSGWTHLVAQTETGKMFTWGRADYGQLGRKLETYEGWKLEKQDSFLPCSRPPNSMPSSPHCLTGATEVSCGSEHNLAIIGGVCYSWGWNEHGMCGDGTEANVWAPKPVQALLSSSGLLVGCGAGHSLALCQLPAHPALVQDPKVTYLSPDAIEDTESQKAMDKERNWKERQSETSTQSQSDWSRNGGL
UniProt Q96FS4: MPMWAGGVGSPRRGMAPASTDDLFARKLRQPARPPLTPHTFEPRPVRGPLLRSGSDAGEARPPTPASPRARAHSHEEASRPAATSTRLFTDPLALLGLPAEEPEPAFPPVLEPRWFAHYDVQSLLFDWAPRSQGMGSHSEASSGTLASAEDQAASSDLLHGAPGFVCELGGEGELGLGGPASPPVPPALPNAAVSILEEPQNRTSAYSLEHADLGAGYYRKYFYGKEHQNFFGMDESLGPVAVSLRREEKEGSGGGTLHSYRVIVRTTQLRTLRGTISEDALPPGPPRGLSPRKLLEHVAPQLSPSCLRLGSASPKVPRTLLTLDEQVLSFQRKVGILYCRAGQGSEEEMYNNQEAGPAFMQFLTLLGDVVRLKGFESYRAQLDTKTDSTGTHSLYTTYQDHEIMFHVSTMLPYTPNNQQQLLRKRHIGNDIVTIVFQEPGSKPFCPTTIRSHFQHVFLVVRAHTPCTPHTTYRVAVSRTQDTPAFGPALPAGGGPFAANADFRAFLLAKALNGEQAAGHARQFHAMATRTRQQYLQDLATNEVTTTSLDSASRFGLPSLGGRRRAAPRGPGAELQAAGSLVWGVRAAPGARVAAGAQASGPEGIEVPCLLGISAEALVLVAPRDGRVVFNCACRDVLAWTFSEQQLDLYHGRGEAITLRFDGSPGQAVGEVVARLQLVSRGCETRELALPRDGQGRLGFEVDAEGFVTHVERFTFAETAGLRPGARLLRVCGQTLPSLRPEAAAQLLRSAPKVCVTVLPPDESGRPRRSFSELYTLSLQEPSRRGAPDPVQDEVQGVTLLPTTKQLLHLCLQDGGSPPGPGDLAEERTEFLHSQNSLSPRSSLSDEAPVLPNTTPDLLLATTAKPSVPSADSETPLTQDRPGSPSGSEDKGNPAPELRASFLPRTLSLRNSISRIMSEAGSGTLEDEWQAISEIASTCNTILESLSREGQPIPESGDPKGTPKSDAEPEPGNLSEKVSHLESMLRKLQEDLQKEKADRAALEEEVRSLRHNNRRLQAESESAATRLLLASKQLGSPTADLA
UniProt P49281: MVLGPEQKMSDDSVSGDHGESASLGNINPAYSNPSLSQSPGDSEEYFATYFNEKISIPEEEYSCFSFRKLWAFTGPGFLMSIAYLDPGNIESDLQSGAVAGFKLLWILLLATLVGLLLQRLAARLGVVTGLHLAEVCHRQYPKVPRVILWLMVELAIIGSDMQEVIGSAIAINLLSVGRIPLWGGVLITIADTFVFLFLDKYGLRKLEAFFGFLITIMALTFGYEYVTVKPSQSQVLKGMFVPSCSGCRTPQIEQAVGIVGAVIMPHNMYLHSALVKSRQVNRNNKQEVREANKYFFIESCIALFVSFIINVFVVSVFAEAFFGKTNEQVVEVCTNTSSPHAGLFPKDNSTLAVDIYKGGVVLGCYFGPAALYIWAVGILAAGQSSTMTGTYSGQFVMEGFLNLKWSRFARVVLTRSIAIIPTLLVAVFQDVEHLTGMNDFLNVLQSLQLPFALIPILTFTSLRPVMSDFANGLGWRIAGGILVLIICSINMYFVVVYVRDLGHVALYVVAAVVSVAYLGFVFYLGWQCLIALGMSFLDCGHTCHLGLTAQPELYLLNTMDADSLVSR
UniProt Q9BRV8: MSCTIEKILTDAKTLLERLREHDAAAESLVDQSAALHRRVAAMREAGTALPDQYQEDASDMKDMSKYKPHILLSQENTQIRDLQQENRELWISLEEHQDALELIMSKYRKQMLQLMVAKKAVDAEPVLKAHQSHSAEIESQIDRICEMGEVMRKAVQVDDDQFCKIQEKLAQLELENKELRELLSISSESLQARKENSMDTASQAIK
UniProt Q0GE19: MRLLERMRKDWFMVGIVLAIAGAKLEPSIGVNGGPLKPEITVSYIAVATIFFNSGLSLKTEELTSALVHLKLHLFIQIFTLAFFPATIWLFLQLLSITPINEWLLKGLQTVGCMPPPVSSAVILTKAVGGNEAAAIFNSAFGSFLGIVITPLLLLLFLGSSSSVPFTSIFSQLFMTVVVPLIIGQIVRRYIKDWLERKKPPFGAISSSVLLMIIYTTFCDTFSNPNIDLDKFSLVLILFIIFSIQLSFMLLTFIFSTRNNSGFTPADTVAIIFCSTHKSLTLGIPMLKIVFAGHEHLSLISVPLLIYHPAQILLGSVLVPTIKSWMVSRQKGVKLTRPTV
UniProt Q86XK3: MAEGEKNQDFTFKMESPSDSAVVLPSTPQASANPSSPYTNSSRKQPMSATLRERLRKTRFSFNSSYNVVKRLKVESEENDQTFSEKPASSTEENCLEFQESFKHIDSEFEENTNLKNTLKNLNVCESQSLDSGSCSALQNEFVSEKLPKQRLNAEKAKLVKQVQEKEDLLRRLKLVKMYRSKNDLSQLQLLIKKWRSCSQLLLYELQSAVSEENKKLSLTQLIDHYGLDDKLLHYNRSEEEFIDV
UniProt P63208, whole entry, looked up: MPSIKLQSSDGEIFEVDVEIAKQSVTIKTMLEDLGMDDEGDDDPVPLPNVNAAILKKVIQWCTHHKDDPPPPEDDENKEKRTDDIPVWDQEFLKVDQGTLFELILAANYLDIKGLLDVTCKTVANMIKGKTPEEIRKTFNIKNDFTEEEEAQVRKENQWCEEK
UniProt Q5FBB7: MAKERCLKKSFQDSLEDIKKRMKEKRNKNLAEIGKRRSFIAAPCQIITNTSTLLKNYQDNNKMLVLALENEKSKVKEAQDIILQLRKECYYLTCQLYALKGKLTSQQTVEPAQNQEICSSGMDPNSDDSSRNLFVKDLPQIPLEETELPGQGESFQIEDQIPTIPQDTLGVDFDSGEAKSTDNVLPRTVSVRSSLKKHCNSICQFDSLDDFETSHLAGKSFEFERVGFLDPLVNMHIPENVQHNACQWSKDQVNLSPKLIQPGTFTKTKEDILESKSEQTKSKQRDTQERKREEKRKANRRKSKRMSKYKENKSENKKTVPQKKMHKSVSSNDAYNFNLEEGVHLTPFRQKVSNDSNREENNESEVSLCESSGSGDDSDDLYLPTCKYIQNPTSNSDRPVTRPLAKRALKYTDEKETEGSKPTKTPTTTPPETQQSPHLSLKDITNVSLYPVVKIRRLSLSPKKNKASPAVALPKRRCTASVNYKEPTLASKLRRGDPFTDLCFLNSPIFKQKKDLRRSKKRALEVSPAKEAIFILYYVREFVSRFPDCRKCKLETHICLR

Experiments:
Experiment in all cases: log2 fold change, soluble protein after heating vs DMSO (PISA); higher = thermal stabilisation; K562 lysate, 10 uM; active = over 0.2 and 3.5 SD of the protein, either way, in both replicates (recomputed)
nilotinib = compound: Cc1cn(-c2cc(NC(=O)c3ccc(C)c(Nc4nccc(-c5cccnc5)n4)c3)cc(C(F)(F)F)c2)cn1 [nilotinib]
Summary of the method: (§1)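 K562 pellets were dounce-homogenised in PBS pH 7.4 with 1 mM MgCl2, and the crude extract at 1 mg/mL protein was treated with 10 μM compound for 30 min. Aliquots were heated for 3 min across 48°C-58°C, pooled, and brought to 0.5% NP-40 at 4°C; soluble protein was the supernatant after 21,000xg for 90 min. Soluble protein was quantified by TMTpro 16plex LC-MS/MS with channel sums equalised, and reported as log2 fold change in thermal stability against DMSO controls, with values from duplicates.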

[1] = compound: Cc1nc(Nc2n[nH]c3c2CN(C(=O)N[C@H](CN(C)C)c2ccccc2)C3(C)C)c2sccc2n1
Summary of the method: as §1

dasatinib = compound: Cc1nc(Nc2ncc(C(=O)Nc3c(C)cccc3Cl)s2)cc(N2CCN(CCO)CC2)n1 [dasatinib]
Summary of the method: as §1

[2] = compound: Cc1ncc(-c2ccnc(Nc3ccc(S(C)(=O)=O)cc3)n2)n1C(C)C
Summary of the method: as §1

[3] = compound: Cn1cc(-c2ccc3c(c2)CCN3C(=O)Cc2cccc(C(F)(F)F)c2)c2c(N)ncnc21
Summary of the method: as §1

quisinostat = compound: Cn1cc(CNCC2CCN(c3ncc(C(=O)NO)cn3)CC2)c2ccccc21 [quisinostat]
Summary of the method: as §1

tipifarnib = compound: Cn1cncc1[C@@](N)(c1ccc(Cl)cc1)c1ccc2c(c1)c(-c1cccc(Cl)c1)cc(=O)n2C [tipifarnib]
Summary of the method: as §1

[4] = compound: NC(=O)Nc1cc(-c2cccc(F)c2)sc1C(=O)N[C@H]1CCCNC1
Summary of the method: as §1

[5] = compound: NC(=O)c1cnc(N[C@@H]2CCCC[C@@H]2N)nc1Nc1cccc(-n2nccn2)c1
Summary of the method: as §1

[6] = compound: NC1(c2ccc(-c3nc4ccn5c(=O)[nH]nc5c4cc3-c3ccccc3)cc2)CCC1
Summary of the method: as §1

[7] = compound: NCC(=O)Nc1ccc(-n2nc(C(F)(F)F)cc2-c2ccc3c(ccc4ccccc43)c2)cc1
Summary of the method: as §1

vorinostat = compound: O=C(CCCCCCC(=O)Nc1ccccc1)NO [vorinostat]
Summary of the method: as §1

silmitasertib = compound: O=C(O)c1ccc2c(c1)nc(Nc1cccc(Cl)c1)c1ccncc12 [silmitasertib]
Summary of the method: as §1

[8] = compound: O=C1NC(=O)C(c2cnc3ccccn23)=C1c1cn2c3c(cc(F)cc13)CN(C(=O)N1CCCCC1)CC2
Summary of the method: as §1

entospletinib = compound: c1cn2cc(-c3ccc4cn[nH]c4c3)nc(Nc3ccc(N4CCOCC4)cc3)c2n1 [entospletinib]
Summary of the method: as §1

Measured: log2 fold change

SGTA (UniProt O43765)
inactive: nilotinib 0.001 | [1] -0.026 | dasatinib 0.023 | [2] 0.015 | [3] 0.002 | quisinostat 0 | tipifarnib 0.039 | [4] -0.032 | [5] -0.017 | [6] 0.02 | [7] 0.003 | vorinostat 0.023 | silmitasertib 0 | [8] 0.009 | entospletinib 0.007

SETX isoform 4 (UniProt Q7Z333)
inactive: nilotinib -0.025 | [1] -0.031 | dasatinib -0.05 | [2] 0.007 | [3] -0.004 | quisinostat -0.034 | tipifarnib 0.037 | [4] 0.028 | [5] 0.037 | [6] -0.025 | [7] -0.007 | vorinostat -0.202 | silmitasertib 0.036 | [8] -0.005 | entospletinib -0.045

SETD2 (UniProt Q9BYW2)
inactive: nilotinib -0.002 | [1] -0.08 | dasatinib -0.028 | [2] 0.063 | [3] 0.013 | quisinostat -0.055 | tipifarnib -0.053 | [4] 0 | [5] -0.003 | [6] 0.004 | [7] 0.038 | vorinostat -0.04 | silmitasertib -0.027 | [8] 0.016 | entospletinib -0.013

SERGEF (UniProt Q9UGK8)
inactive: nilotinib -0.001 | [1] -0.027 | dasatinib 0.021 | [2] 0.053 | [3] -0.016 | quisinostat 0.006 | tipifarnib -0.001 | [4] 0.138 | [5] -0.037 | [6] -0.041 | [7] 0.011 | vorinostat -0.189 | silmitasertib -0.04 | [8] -0.068 | entospletinib -0.024

SKP2 (UniProt Q13309)
inactive: nilotinib 0.047 | [1] -0.044 | dasatinib -0.004 | [2] 0.003 | [3] 0.045 | quisinostat -0.193 | tipifarnib -0.035 | [4] 0.295 | [5] -0.015 | [6] -0.044 | [7] -0.07 | vorinostat -0.203 | silmitasertib 0.012 | [8] 0.009 | entospletinib -0.103

SIPA1 (UniProt Q96FS4)
inactive: nilotinib 0.018 | [1] -0.029 | dasatinib 0.046 | [2] 0.029 | [3] 0.001 | quisinostat 0.025 | tipifarnib -0.001 | [4] 0.028 | [5] -0.015 | [6] -0.022 | [7] 0.024 | vorinostat 0.013 | silmitasertib -0.021 | [8] -0.025 | entospletinib -0.082

SFN (UniProt P31947)
inactive: nilotinib -0.036 | [1] -0.007 | dasatinib 0.088 | [2] -0.007 | [3] 0.008 | quisinostat 0.077 | tipifarnib 0.052 | [4] -0.048 | [5] -0.023 | [6] 0.035 | [7] -0.001 | vorinostat 0.107 | silmitasertib -0.032 | [8] -0.026 | entospletinib 0.045

SH3GL1 (UniProt Q99961)
inactive: nilotinib -0.01 | [1] 0.029 | dasatinib -0.024 | [2] 0.01 | [3] -0.009 | quisinostat -0.046 | tipifarnib 0.015 | [4] 0.004 | [5] 0.006 | [6] 0.033 | [7] -0.012 | silmitasertib 0 | [8] 0.009 | entospletinib -0.004
active: vorinostat -0.245

Reprinted at random: two entries already listed, in no set order.
SIPA1 (UniProt Q96FS4)
inactive: nilotinib 0.018 | [1] -0.029 | dasatinib 0.046 | [2] 0.029 | [3] 0.001 | quisinostat 0.025 | tipifarnib -0.001 | [4] 0.028 | [5] -0.015 | [6] -0.022 | [7] 0.024 | vorinostat 0.013 | silmitasertib -0.021 | [8] -0.025 | entospletinib -0.082

SH3GL1 (UniProt Q99961)
inactive: nilotinib -0.01 | [1] 0.029 | dasatinib -0.024 | [2] 0.01 | [3] -0.009 | quisinostat -0.046 | tipifarnib 0.015 | [4] 0.004 | [5] 0.006 | [6] 0.033 | [7] -0.012 | silmitasertib 0 | [8] 0.009 | entospletinib -0.004
active: vorinostat -0.245

Continued.

SLC11A2 isoform 3 (UniProt P49281)
inactive: nilotinib -0.099 | [1] -0.108 | dasatinib 0.07 | [2] 0.03 | [3] -0.048 | quisinostat -0.112 | tipifarnib -0.089 | [4] 0.055 | [5] -0.042 | [6] 0.111 | [7] -0.011 | vorinostat 0 | silmitasertib -0.047 | [8] 0.013 | entospletinib -0.054

SF3A2 (UniProt Q15428)
inactive: nilotinib 0.025 | [1] 0.002 | dasatinib -0.021 | [2] 0.025 | [3] -0.013 | quisinostat -0.019 | tipifarnib -0.021 | [4] -0.028 | [5] -0.005 | [6] 0.012 | [7] -0.048 | vorinostat -0.018 | silmitasertib 0.01 | [8] -0.024 | entospletinib -0.01

SET isoform 2 (UniProt Q01105)
inactive: nilotinib 0.006 | [1] -0.029 | dasatinib 0.018 | [2] 0.011 | [3] -0.023 | quisinostat -0.04 | tipifarnib 0.02 | [4] -0.004 | [5] 0.016 | [6] -0.009 | [7] 0.019 | vorinostat 0.104 | silmitasertib -0.038 | [8] 0.001 | entospletinib -0.01

SIKE1 (UniProt Q9BRV8)
inactive: nilotinib -0.044 | [1] 0.022 | dasatinib 0.074 | [2] 0.032 | [3] -0.002 | quisinostat -0.078 | tipifarnib -0.089 | [4] 0.014 | [5] 0.022 | [6] -0.053 | [7] 0.011 | vorinostat 0.032 | silmitasertib 0.041 | [8] 0.039 | entospletinib -0.031

SLC10A7 isoform 1 (UniProt Q0GE19)
inactive: nilotinib 0.038 | [1] -0.004 | dasatinib -0.07 | [2] 0 | [3] -0.026 | quisinostat -0.14 | tipifarnib -0.055 | [4] 0.028 | [5] 0.05 | [6] 0.046 | [7] 0.026 | vorinostat -0.098 | silmitasertib 0.015 | [8] 0.013 | entospletinib -0.047

SFR1 isoform 2 (UniProt Q86XK3)
inactive: nilotinib -0.029 | [1] 0.068 | dasatinib 0.055 | [2] 0.045 | [3] -0.058 | quisinostat -0.029 | tipifarnib 0.072 | [4] -0.004 | [5] 0.02 | [6] -0.039 | [7] 0.092 | vorinostat -0.074 | silmitasertib 0.023 | [8] -0.026 | entospletinib -0.043

SLC19A1 (UniProt P41440)
inactive: nilotinib -0.026 | [1] 0.014 | dasatinib 0.019 | [2] -0.032 | [3] -0.017 | quisinostat -0.077 | tipifarnib -0.01 | [4] -0.015 | [5] -0.027 | [6] -0.004 | [7] 0.003 | vorinostat 0.01 | silmitasertib -0.024 | [8] -0.054 | entospletinib -0.002

SKP1 (UniProt P63208)
inactive: nilotinib 0 | [1] 0.021 | dasatinib 0.041 | [2] 0.022 | [3] 0.003 | quisinostat -0.024 | tipifarnib -0.005 | [4] -0.017 | [5] -0.03 | [6] -0.002 | [7] -0.018 | vorinostat 0.053 | silmitasertib -0.018 | [8] 0.038 | entospletinib -0.004

SFXN5 (UniProt Q8TD22)
inactive: nilotinib 0.055 | [1] -0.031 | dasatinib 0.189 | [2] 0.009 | [3] -0.063 | quisinostat -0.014 | tipifarnib 0.111 | [4] -0.028 | [5] -0.038 | [6] 0.071 | [7] -0.018 | vorinostat 0.126 | silmitasertib 0.064 | [8] 0.079 | entospletinib -0.025

SETDB1 (UniProt Q15047)
inactive: nilotinib 0.01 | [1] -0.011 | dasatinib 0.051 | [2] -0.056 | [3] 0.047 | quisinostat -0.014 | tipifarnib 0.013 | [4] 0.004 | [5] 0.056 | [6] -0.013 | [7] 0.051 | vorinostat 0.059 | silmitasertib -0.041 | [8] 0.005 | entospletinib -0.018

SGO1 (UniProt Q5FBB7)
inactive: nilotinib 0.156 | [1] -0.041 | dasatinib -0.048 | [2] -0.05 | [3] 0.096 | quisinostat -0.014 | tipifarnib -0.064 | [4] 0.037 | [5] 0.024 | [6] 0.061 | [7] 0.024 | vorinostat -0.114 | silmitasertib 0.049 | [8] 0.036 | entospletinib -0.046

SLC1A5 (UniProt Q15758)
inactive: nilotinib -0.005 | [1] 0.018 | dasatinib 0.031 | [2] -0.013 | [3] -0.022 | quisinostat -0.043 | tipifarnib -0.007 | [4] 0.01 | [5] -0.008 | [6] -0.02 | [7] 0.014 | vorinostat 0.03 | silmitasertib -0.018 | [8] -0.033 | entospletinib 0
